The supplement of paper PMC3682954
Several values for one entry are separate records, joined by “and”; a condition that tells them apart may be missing. Equal entries are not always repeated. Structures can show the parent of a compound that is named as a salt. ± gives the standard deviation of the averaged measurements. This is one part of the list. Repeats are few or missing, and single values can be far off.

Tested on: RAW 264.7
Test: cell viability (MTT) relative to vehicle control; higher = more viable cells
Settings: stimulus: HMGB1 5 ug/ml, 18 h
[1] = compound concentration: 1 ug/ml

Compound | cell viability (compound concentration: 3 uM) | cell viability [1]
O=c1ccn([C@@H]2O[C@H](COP(=O)(O)OP(=O)(O)O)[C@@H](O)[C@H]2O)c(=O)[nH]1 [Uridine 5'-diphosphate sodium] | 117% | –
CC(C(O)c1ccc(O)cc1)N1CCC(Cc2ccccc2)CC1 (configuration not stated) [Ifenprodil] | 102 ± 4.8% | –
CC(C(O)c1ccc(O)cc1)N1CCC(Cc2ccccc2)CC1 (configuration not stated) [Ifenprodil tartrate] | 103 ± 10% | –
CC(C(O)c1ccc(O)cc1)N1CCC(Cc2ccccc2)CC1 (configuration not stated) | 115% | –
C[C@@H]1C/C=C/C=C/C=C/C=C/[C@H](O[C@@H]2O[C@H](C)[C@@H](O)[C@H](N)[C@@H]2O)C[C@@H]2O[C@](O)(C[C@@H](O)C[C@H]3O[C@@H]3/C=C/C(=O)O1)C[C@H](O)[C@H]2C(=O)O | 107% | –
O=C(O)C1=CC(=C(c2ccc(O)c(C(=O)O)c2)c2ccc(O)c(C(=O)O)c2)C=CC1=O [Aurintricarboxylic acid] | 99.3% | –
NC(C(=O)O)C(O)C(=O)O (racemic) [DL-threo-beta-hydroxyaspartic acid] | 114% | –
CCCn1c(=O)c(C)cn2nc(N)nc12 | 109% | –
Cc1cc(C)nc(NS(=O)(=O)c2ccc(N)cc2)n1 | 101% | –
Cc1cc(C)nc(NS(=O)(=O)c2ccc(N)cc2)n1 [Sulfamethazine sodium salt] | 141% | –
COc1cc(NS(=O)(=O)c2ccc(N)cc2)ncn1 | 111% | –
COc1cc(NS(=O)(=O)c2ccc(N)cc2)ncn1 [Sulfamonomethoxine] | 116% | –
CC1(C)O[C@@H]2C[C@H]3[C@@H]4C[C@H](F)C5=CC(=O)C=C[C@]5(C)[C@@]4(F)[C@@H](O)C[C@]3(C)[C@]2(C(=O)CO)O1 | 115% | –
CC1(C)O[C@@H]2C[C@H]3[C@@H]4C[C@H](F)C5=CC(=O)C=C[C@]5(C)[C@@]4(F)[C@@H](O)C[C@]3(C)[C@]2(C(=O)CO)O1 [Fluocinolone acetonide] | 105 ± 1.4% | –
COC(=O)N/N=C/c1c[n+]([O-])c2ccccc2[n+]1[O-] [Carbadox] | 96.7 ± 2% | –
COC(=O)N/N=C/c1c[n+]([O-])c2ccccc2[n+]1[O-] | 105% | –
CN(C(=O)CN(CCO)CC(=O)N(C)C(C)(C)Cc1ccccc1)C(C)(C)Cc1ccccc1 [Oxethazaine] | 114% | –
CN(C(=O)CN(CCO)CC(=O)N(C)C(C)(C)Cc1ccccc1)C(C)(C)Cc1ccccc1 | 97.7% | –
Cn1cc(C(F)(F)F)nc1-c1ccc(OCC(O)CNCCOc2ccc(O)c(C(N)=O)c2)cc1 (configuration not stated) | 112% | –
CN1CCN2c3ncccc3Cc3ccccc3C2C1 (configuration not stated) [Mirtazapine] | 81.3% | –
CN1CCN2c3ncccc3Cc3ccccc3C2C1 (configuration not stated) | 98.8% | –
CC(C)[C@H](N)C(=O)OCCOCn1cnc2c(=O)nc(N)[nH]c21 [Valaciclovir] | 101% | –
CC(C)[C@H](N)C(=O)OCCOCn1cnc2c(=O)nc(N)[nH]c21 | 98.1% and 107% | –
CCOC(=O)/C=C(C)/C=C/C=C(C)/C=C/c1c(C)cc(OC)c(C)c1C [Etretinate] | 117 ± 4.5% | –
CCOC(=O)Nc1nc2ccccc2[nH]1 | 108% | –
C=C/C(C)=C/[C@@]1(C)SC(=O)C(C)=C1O [Thiolactomycin] | 102% | –

Full records as entered above.
CCCn1c(=O)c(C)cn2nc(N)nc12 in the list: cell viability (compound concentration: 3 uM): 109%
COC(=O)N/N=C/c1c[n+]([O-])c2ccccc2[n+]1[O-] in the list: cell viability (compound concentration: 3 uM): 105%
CC(C(O)c1ccc(O)cc1)N1CCC(Cc2ccccc2)CC1 (configuration not stated) [Ifenprodil tartrate] in the list: cell viability (compound concentration: 3 uM): 103 ± 10%

Further results.

Compound | cell viability (compound concentration: 3 uM) | cell viability [1]
COc1ccc2c(c1)c(CC(=O)O)c(C)n2C(=O)c1ccccc1 [1-benzoyl-5-methoxy-2-methylindole-3-acetic acid] | 116% | –
Nc1nc2c(cnn2CCc2ccccc2)c2nc(-c3ccco3)nn12 | 109% | –
OC[C@H]1O[C@@H](n2cnc3c(Cl)ncnc32)[C@H](O)[C@@H]1O [6-Chloropurine riboside] | – | 90.4%
Cc1c(N)c(=O)n(-c2ccccc2)n1C [Ampyrone] | 103% | –
COc1ccc(CC(=O)c2c(O)cc(O)cc2O)cc1O | – | 90.1%
C=CCOc1ccccc1OCC(O)CNC(C)C (configuration not stated) [Oxprenolol hydrochloride] | 90.9% | –
COc1cc(-c2cc(=O)c3ccccc3o2)ccc1O | – | 94.3%
NC[C@H]1O[C@H](O[C@H]2[C@H](O)[C@@H](O[C@H]3O[C@H](CO)[C@@H](O)[C@H](N)[C@H]3O)[C@H](N)C[C@@H]2N)[C@H](N)C[C@@H]1O | 104 ± 7.9% | –
NC[C@H]1O[C@H](O[C@H]2[C@H](O)[C@@H](O[C@H]3O[C@H](CO)[C@@H](O)[C@H](N)[C@H]3O)[C@H](N)C[C@@H]2N)[C@H](N)C[C@@H]1O [Tobramycin] | 92.9% | –
NC[C@H]1O[C@H](O[C@H]2[C@H](O)[C@@H](O[C@H]3O[C@H](CO)[C@@H](O)[C@H](N)[C@H]3O)[C@H](N)C[C@@H]2N)[C@H](N)C[C@@H]1O [Tobramycin (free base)] | 104% | –
C[C@@H]1C[C@H]2[C@@H]3CCC4=CC(=O)C=C[C@]4(C)[C@@]3(F)[C@@H](O)C[C@]2(C)[C@H]1C(=O)CO | 108% | –
CCN(CC)CCOCCOC(=O)C1(c2ccccc2)CCCC1 [Carbetapentane citrate] | 100.8 ± 0.96% | –
CCN(CC)CCOCCOC(=O)C1(c2ccccc2)CCCC1 | 118% | –
O=C(c1cc(O)c(O)c([N+](=O)[O-])c1)c1ccccc1F | 123% | –
O=P(O)(O)C(O)(Cn1ccnc1)P(=O)(O)O [Zoledronic acid] | 93.7% | –
CCN(CCCCOC(=O)c1ccc(OC)c(OC)c1)C(C)Cc1ccc(OC)cc1 (configuration not stated) [Mebeverine hydrochloride] | 102% | –
CCN(CCCCOC(=O)c1ccc(OC)c(OC)c1)C(C)Cc1ccc(OC)cc1 (configuration not stated) | 112% | –
CCN(CC)C(=O)C1(c2ccccc2)CC1CN (configuration not stated) [Milnacipran] | 94.8% | –
Cc1cc(C(C)(C)C)cc(C)c1CC1=NCCN1 [Xylometazoline hydrochloride] | 109.9 ± 0.37% | –
Cc1cc(C(C)(C)C)cc(C)c1CC1=NCCN1 | 102% | –
CC(C)(CO)[C@@H](O)C(=O)NCCC(=O)O [Pantothenic acid] | 89.8% | –
CC(C)(CO)[C@@H](O)C(=O)NCCC(=O)O [PANTOTHENIC ACID(d) Na salt] | 107% | –
O=c1[nH]ccc2c(O)cccc12 [1,5-Isoquinolinediol] | 98.7% | –
COc1cc2nc(N3CCN(C(=O)C4COc5ccccc5O4)CC3)nc(N)c2cc1OC (configuration not stated) [Doxazosin] | 103% | –
COc1cc2nc(N3CCN(C(=O)C4COc5ccccc5O4)CC3)nc(N)c2cc1OC (configuration not stated) [Doxazosin mesylate] | 90.8 ± 1.9% | –
COc1cc2nc(N3CCN(C(=O)C4COc5ccccc5O4)CC3)nc(N)c2cc1OC (configuration not stated) | 92.8% | –
